Experimental data from PubChem BioAssay AID504834 (National Center for Advancing Translational Sciences (NCATS), 2011).
The campaign covered roughly 320,000 compounds. About 22,000 (6.9%) were called active. The shares of active, inactive and inconclusive entries below differ from those in the screen. Calls come from the whole dose curve; as a rule, active = well fitted inhibition curve with a large enough effect; inconclusive = small, poorly fitted or top-dose-only effect, or another doubt; inactive = no such curve, though single readings can be large or run the other way. A potency beside an inconclusive call is a rough fit, not a confirmed value.

Test: Primary qHTS for delayed death inhibitors of the malarial parasite plastid, 96 hour incubation
Conditions: P. falciparum luciferase reporter growth; series mostly up to 28.7 µM
Procedure, shortened: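 Two-generation exposure (96 h) targets delayed-death phenotype. Reporter parasites carrying integrated firefly luciferase, in red cells at 2% hematocrit and 0.05% parasitemia final, kept at 37 C, 5% CO2; luminescence loss indicates inhibition.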
% is set by controls: 0 for no effect and ±100 for the full control effect; potency is the fitted concentration of half-maximal effect.

Structure (SMILES)	Potency	activity change, negative = inhibition
COc1cccc(-n2nc(C(=O)NCC3CCCO3)c3ccccc3c2=O)c1 (centres undefined)	active: 3.7 µM	–
O=C(N=C1SC2CS(=O)(=O)CC2N1c1ccc(Cl)cc1Cl)C1CC1 (centres undefined)	inactive	–
COc1ccc(O)c(/C=N\NC(=O)CCn2nnc3ccccc32)c1	inconclusive: 0.0928 µM [inhibitor, full curve, poor fit]	–
O=C(NC1=NCCS1)c1cccc(NC(=O)c2ccco2)c1	inactive	–
COc1ccc(-c2cc(C(=O)N3CCN(C(c4ccccc4)c4ccccc4)CC3)no2)cc1	active: 11.7 µM	–
COc1ccc(-c2nc(NC(C)=O)sc2-c2ccc(OC)cc2)cc1	inactive	–
N/C(=N/OCC(=O)Nc1cccc2ccccc12)c1nonc1N	inconclusive: 0.465 µM [inhibitor, full curve, poor fit]	–
O=C(c1ccc(Br)cc1)N1CCC2(CC1)NCCc1[nH]cnc12	inactive	–
COc1ccc(C2=NN(CCC(=O)NCc3ccc4c(c3)OCO4)C(=O)CC2)cc1	inactive	–
COc1ccccc1N1CCN(C(=O)CSc2nc3ccccc3[nH]2)CC1	inconclusive: 0.329 µM [inhibitor, full curve, poor fit]	–
CCOC(=O)c1c(C)oc(NC(=O)COc2ccc(Cl)cc2C)c1C#N	inconclusive: 18.5 µM [inhibitor, single point]	–
ClC1(Cl)CC1Cn1cnc2ccccc21 (centres undefined)	inconclusive: 4.65 µM [inhibitor, partial curve, poor fit]	–
COc1ccccc1NCc1ccc([N+](=O)[O-])s1	inconclusive: 10.4 µM [inhibitor, single point]	–
Cc1ccc(NC(=S)NCc2ccc3c(c2)cc(C)n3C)c(C)c1	inconclusive: 13.1 µM [inhibitor, partial curve, poor fit]	–
O=C(CSCCSCC(=O)c1ccco1)c1ccco1	inconclusive: 18.5 µM [inhibitor, single point]	–
O=C1C2CCCN2c2ccc(S(=O)(=O)N3CCOCC3)cc2N1Cc1cccc(C(F)(F)F)c1 (centres undefined)	active: 0.522 µM	–
CCC(=O)Nc1ccc(C(=O)CSc2nnc(-c3ccccc3F)n2C2CC2)cc1	active: 2.94 µM	–
O=[N+]([O-])c1ccc(/C=N/Nc2ncc(Br)cn2)cc1	inconclusive: 14.7 µM [inhibitor, single point]	–
CC(C)C(C(=O)NC1CCCC1)N(CC1CCCO1)C(=O)CNS(=O)(=O)c1ccc(F)cc1 (centres undefined)	inconclusive: 6.57 µM [inhibitor, partial curve]	–
Cc1nc2c(c(=O)n1Cc1ccco1)c1nc3ccccc3nc1n2Cc1ccccc1	–	inactive: 27.6% [at 5.75 µM]
Cc1ccc(-c2cc(C(F)F)n3ncc(C(=O)N4CCc5ccccc54)c3n2)cc1	inconclusive: 18.5 µM [inhibitor, single point]	–
CCOCCn1c(SCc2ccc(C)cc2)nc2c1c(=O)[nH]c(=O)n2C	inconclusive: 18.5 µM [inhibitor, single point]	–
C(=N\Nc1ccccc1)/c1nc2ccccc2s1	inactive	–

Structure (SMILES)	Potency	activity change, negative = inhibition
CCN(CC)c1ccc(NC(=O)CSc2n[nH]c(-c3ccco3)n2)cc1	inconclusive: 14.7 µM [inhibitor, single point]	–
COCCNC(=S)Nc1ccc2nc(N3CCCC3)cc(C)c2c1	inconclusive: 18.5 µM [inhibitor, single point]	–
O=c1cc(CN2CCc3ccccc3C2)nc2sccn12	inconclusive: 18.5 µM [inhibitor, single point]	–
COCCCn1c(SCC(=O)OC2CCCCC2)nnc1-c1ccco1	inconclusive: 18.5 µM [inhibitor, single point]	–
COc1cccc2sc3ccc(C#CC4(O)CCCCC4)cc3c(=O)c12	inconclusive: 9.28 µM [inhibitor, single point]	–
COc1cc2[nH]c(=O)n(Cc3ccc(C(=O)NCCCN4CCC(C)CC4)cc3)c(=O)c2cc1OC	inconclusive: 4.65 µM [inhibitor, partial curve, poor fit]	–
O=C(CN1CCCCC1)N1c2ccccc2CCc2ccccc21	inconclusive: 11.7 µM [inhibitor, single point]	–
O=C(Nc1ccc(S(=O)(=O)C(F)F)cc1)c1ccc2c(=O)n3c(nc2c1)CCC3	inconclusive: 0.208 µM [inhibitor, full curve]	–
Cc1cc(Br)ccc1NC(=O)CN(C)C(=O)c1ccc(-n2cncn2)c([N+](=O)[O-])c1	inconclusive: 0.828 µM [inhibitor, full curve, poor fit]	–
O=C1CC(C(=O)N2CCCc3ccccc32)CN1c1ccc(Cl)cc1 (centres undefined)	inconclusive: 14.7 µM [inhibitor, single point]	–
Cc1ccc(C2N=C(N)Nc3nc4ccccc4n32)cc1 (centres undefined)	inactive	–
CCCCOc1cccc(C(=O)NC(=S)Nc2cccc(NC(=O)c3ccccc3Cl)c2)c1	inactive	–
CCOC(=O)c1c(CN2CCN(CC#N)CC2)n(C)c2cc(Br)c(OC)cc12	inconclusive: 14.7 µM [inhibitor, single point]	–
COc1ccc(Cc2nnc(SCC(=O)Nc3cc(Cl)ccc3C)[nH]c2=O)cc1	inactive	–
CC1CCC2(CC1)C(Nc1cccc(Cl)c1)=NC(=S)N2CC#N (centres undefined)	inconclusive: 16.5 µM [inhibitor, single point]	–
CC(=O)NCCc1nc2cc(NC(=O)c3ccc([N+](=O)[O-])cc3)ccc2n1C	inactive	–
O=C(CCn1cnnn1)Nc1ccccc1F	active: 4.65 µM	–
Cc1cccc(C(=O)NCc2nnc(SCC(=O)NC3=NCCS3)n2C)c1	inconclusive: 10.4 µM [inhibitor, single point]	–
Cc1ccsc1/C=N/NC(=O)C(N)=O	inactive	–
CCc1ccc(OCc2ccc(C(=O)NCc3ccccn3)o2)cc1	active: 10.4 µM	–
COc1ccc(C2=NOC(C(=O)NC(C)C)C2)cc1 (centres undefined)	inconclusive: 11.7 µM [inhibitor, single point]	–
CN1CCN(c2ccccc2NC(=O)Cc2ccc(Cl)cc2)CC1	inconclusive: 18.5 µM [inhibitor, single point]	–
O=C(c1ccccc1)c1c[nH]c2cc3c(cc2c1=O)OCCO3	active: 14.7 µM	–

Single records, as listed above. Values in the order: Potency | activity change, negative = inhibition
Cc1ccc(C2N=C(N)Nc3nc4ccccc4n32)cc1 (centres undefined) is listed with inactive | –
O=c1cc(CN2CCc3ccccc3C2)nc2sccn12 is listed with inconclusive: 18.5 µM [inhibitor, single point] | –

The list goes on:

Structure (SMILES)	Potency	activity change, negative = inhibition
Cc1ccc(/C=C2\C(=O)NC(=S)N(c3cccc(F)c3)C2=O)o1	inconclusive: 16.5 µM [inhibitor, single point]	–
O=S(=O)(NCc1ccccc1)c1ccc(S(=O)(=O)N2CCCC2)cc1	inconclusive: 2.33 µM [inhibitor, full curve, poor fit]	–
CC(=O)N1CCc2[nH]c3ccccc3c2C1	inconclusive: 10.4 µM [inhibitor, partial curve, poor fit]	–
O=C(O)c1cc(-c2ccc(/C=C3\NC(=O)N(c4ccccc4)C3=O)o2)ccc1Cl	inconclusive: 18.5 µM [inhibitor, single point]	–
Cc1cc(C(=O)NC2CCCc3c2cnn3-c2ccc(C(C)(C)C)cc2)n[nH]1 (centres undefined)	inactive	–
CC(=O)c1c(COC(=O)c2ccc(F)cc2)nc2ccccc2[n+]1[O-]	inconclusive: 0.415 µM [inhibitor, full curve, poor fit]	–
CCOC(=O)c1c(NC(=O)CSc2cccc[n+]2[O-])sc(C(=O)Nc2ccccc2)c1C	inconclusive: 14.7 µM [inhibitor, single point]	–
CCCC12CN3CCN(CC(C3)/C1=N\NC(=O)c1ccc(F)cc1)C2	inactive	–
COCCNC(=O)c1cc(-c2cccnc2)nc2ccc(Br)cc12	inactive	–
COc1ccc(-c2nsc(SCC(=O)NCC3CCCO3)n2)cc1 (centres undefined)	inconclusive: 0.0026 µM [inhibitor, full curve, poor fit]	–
COc1ccc(C(C(=O)NC2CCCCC2)N(C(=O)c2sc(C)nc2C)c2ccccc2C)cc1 (centres undefined)	inconclusive: 0.131 µM [inhibitor, partial curve, poor fit]	–
CC1(C)CC(=O)C(C=NCCN2CCN(C(=S)NC3CCCCC3)CC2)=C(O)C1	inconclusive: 10.4 µM [inhibitor, single point]	–
CCCCCn1c(SC(C)C(C)=O)nc2c1c(=O)[nH]c(=O)n2C (centres undefined)	inconclusive: 18.5 µM [inhibitor, single point]	–
O=C(NCCCn1ccnc1)C(=O)NC1CCCCC1	inconclusive: 20.8 µM [inhibitor, partial curve, poor fit]	–
CCc1csc(CCNC(=O)C2CCC(=O)N(CCc3cccc(F)c3)C2)n1 (centres undefined)	inactive	–
O=C(Cn1ncc2c([nH]c3ccccc32)c1=O)NCC1CCN(Cc2ccccc2F)CC1	active: 9.28 µM	–
CCCc1[nH]nc2c1C(c1ccoc1)C(C#N)=C(N)O2 (centres undefined)	inconclusive: 7.38 µM [inhibitor, partial curve, poor fit]	–
O=c1ccc(Cc2ccccn2)n[nH]1	inconclusive: 0.0415 µM [inhibitor, full curve, poor fit]	–
C/C(=N\NC(=O)c1nnn(-c2nonc2N)c1-c1ccc(Cl)c(Cl)c1)c1ccncc1	inconclusive: 13.1 µM [inhibitor, partial curve, poor fit]	–
CC1Cc2ccccc2N1C(=O)C1CCCN(S(=O)(=O)c2cccc3nsnc23)C1 (centres undefined)	inconclusive: 18.5 µM [inhibitor, single point]	–
CC(C)c1ccc(NC(=O)CN(Cc2ccccc2)S(C)(=O)=O)cc1	inconclusive: 14.7 µM [inhibitor, single point]	–
Cc1csc(NC(=O)C(C)Oc2ccc(Cl)cc2C)n1 (centres undefined)	inconclusive: 10.4 µM [inhibitor, single point]	–
O=C(Nc1nc(-c2ccccn2)cs1)c1ncc(Cl)c(Cl)c1Cl	active: 13.1 µM	–
